# Reference: PubChem BioAssay AID2685 (National Center for Advancing Translational Sciences (NCATS), 2010)
# The other results are listed elsewhere or left out. Shown are side measurements of this screen, not its main read-out; they come without a call. The list favours compounds with an active or inconclusive main result. Words in brackets tell the shape of the fitted curve; partial curves, single points and poor fits give uncertain potencies.
# Test: qHTS Assay for Lipid Storage Modulators in Drosophila S3 Cells;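 on cell number change: cells counted by Cell Tracker Red CMTPX staining in the red channel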
# Conditions: BODIPY lipid droplet fluorescence, 18-24 h; for cell number change: measured here: cell count max response, cells fed with added oleic acid
# Procedure, shortened: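 Laser-scanning cytometry quantifies lipid droplet accumulation (500–530 nm total intensity; droplet/cell object ratio) in oleic acid-fed (400 uM added) Drosophila S3 cells treated with a concentration series. 20 uM Triacsin C defined 100% inhibition.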
# [1] = measured here: lipid fluorescence (Fed channel) AC50, cells fed with added oleic acid
# [2] = measured here: cell number channel AC50, cells fed with added oleic acid
Structure (SMILES),cell number change [%],AC50 [1],AC50 [2]
COc1ccc(CNC(=O)CN2C(=O)NC3(CCCc4sccc43)C2=O)cc1OC (stereo not drawn),4.64,"0.82 µM [falling, single point]",–
Cn1cc(/C=C(\C(=O)O)C(C(=O)O)=C2CCCCC2)c2ccccc21,-35.3,"25.9 µM [falling, single point]","29.1 µM [falling, single point]"
CCOc1ccc(OCCCCn2ccnc2)cc1,-16.7,"25.9 µM [rising, partial curve, poor fit]","0.00461 µM [falling, full curve, poor fit]"
S=C(NCCN1CCOCC1)Nc1ccc(Cl)cc1,-3.77,"0.517 µM [rising, partial curve, poor fit]",–
CCCCN(CC)S(=O)(=O)c1ccc(C(=O)N=c2sc3cc(NC(C)=O)ccc3n2C)cc1,-15.9,"6.51 µM [falling, single point]","6.51 µM [falling, single point]"
COC(=O)c1cccc(NC(=O)Cc2nc(-c3ccccc3)sc2-c2ccc(C)cc2)c1,3.13,"0.651 µM [rising, single point]",–
Cc1ccc(S(=O)(=O)N2CCN(C(=O)N3CCCC3)CC2)cc1,-22.4,–,–
COc1cccc2cc(C(=O)NCCC3=CCCCC3)c(=O)oc12,62.3,–,"14.6 µM [rising, partial curve]"
CCOC(=O)C1C(c2cccc(F)c2)NC(=S)NC1(O)C(F)(F)F (stereo not drawn),86.6,"6.51 µM [rising, partial curve]","1.3 µM [rising, full curve]"
CC(C)c1ccc(NC(=O)C2CCN(c3ncnc4c3nc3n4CCCCC3)CC2)cc1,-17.6,–,–
O=C(O)c1cc(-c2ccc(Cl)cc2)n(-c2ccc(F)cc2)n1,-33.4,"29.1 µM [falling, single point]","29.1 µM [falling, single point]"
O=C(O)/C=C/C(=O)Nc1ccc(OC(F)(F)F)cc1Br,-48.2,"29.1 µM [falling, single point]","18.4 µM [falling, single point]"
CC(Sc1nnc(-c2ccccc2F)n1C1CC1)C(=O)NCc1ccco1 (stereo not drawn),-13.2,"11.6 µM [falling, partial curve]",–
Cc1cc(C)nc(NS(=O)(=O)c2ccc(N/C=C/C(=O)c3ccc(Cl)c(Cl)c3)cc2)n1,-21.9,–,–
O=C(O)CCCC(=O)Nc1cccc(-c2nc3ccccc3[nH]2)c1,-25.5,"2.31 µM [falling, full curve]",–
CC(=O)C(C)Sc1nnc(-c2ccccc2F)n1C1CC1 (stereo not drawn),-38.1,"6.51 µM [rising, single point]","9.2 µM [falling, partial curve]"
CCOc1ncccc1C(=O)OCC(=O)Nc1cccc(S(N)(=O)=O)c1,-0.541,"0.092 µM [rising, full curve, poor fit]",–
Cc1c(C)n(CCC#N)c2ccccc12,-5.41,"6.51 µM [falling, partial curve, poor fit]",–
COc1ccc(NS(=O)(=O)c2ccc(O)c(C(=O)OCC(=O)Nc3ccc4c(c3)OCCO4)c2)cc1,8.7,"6.51 µM [rising, single point]",–
CCN(CC)S(=O)(=O)c1ccc(C2CNC(=O)C2)cc1 (stereo not drawn),-31.1,"0.92 µM [falling, partial curve]","0.259 µM [falling, full curve, poor fit]"

Structure (SMILES),cell number change [%],AC50 [1],AC50 [2]
CC1CCN(C(=S)NC(=O)c2ccccc2)CC1,12.9,"9.2 µM [rising, partial curve]",–
CCOC(=O)c1csc(NC(=O)C2=COCCO2)n1,-28.9,–,–
CCOCCc1nnc(NC(=O)c2cccs2)s1,4.03,"1.3 µM [falling, full curve]",–
Fc1ccccc1CNC(=S)Nc1ccc(Cl)cc1,-41.6,"10.3 µM [falling, partial curve]","9.2 µM [falling, partial curve]"
COc1ccc(OCC(=O)N2CCN(S(=O)(=O)c3ccc(Cl)s3)CC2)cc1,28.7,"20.6 µM [rising, single point]",–
COC(=O)c1cc2cc(Cl)ccc2nc1SC,-1.98,"0.00517 µM [rising, full curve, poor fit]",–
Nc1ncc(Br)cc1S(=O)(=O)NCCC(=O)NCCc1ccccc1,11.6,"1.46 µM [rising, single point]",–
COc1ccc(C(=O)NCC(c2ccco2)N2CCOCC2)cc1OC (stereo not drawn),–,–,"3.66 µM [falling, single point]"
COc1ccc2oc(C)c(C(N)=O)c2c1,-8.07,"4.11 µM [falling, partial curve]",–
O=C(CCN1C(=O)/C(=C/c2ccccc2Cl)SC1=S)NCCc1ccc(O)cc1,-4.2,"29.1 µM [rising, single point]",–
COC(=O)c1ccc(NC(=O)C[n+]2ccccc2)cc1,-1.65,"32.6 µM [rising, single point]",–
O=C(CSc1ccc2c(c1)OCCO2)Nc1ccc(N2CCOCC2)cc1,–,"1.84 µM [rising, partial curve]","1.46 µM [rising, full curve]"
O=C(c1ccoc1)N1CCCC(N2CCN(c3ccc(F)cc3)CC2)C1 (stereo not drawn),6.91,"23.1 µM [falling, single point]",–
CC12CCC(=O)N1C(C(=O)NCCc1ccc(S(N)(=O)=O)cc1)CS2 (stereo not drawn),33,"29.1 µM [rising, single point]","0.291 µM [rising, full curve, poor fit]"
COC(=O)c1cc(NC(=O)c2ccccc2)c(=O)oc1C,29,–,–
CN(C)CCNC(=O)Cc1ncc(C(F)(F)F)cc1Cl,-10,"0.146 µM [falling, full curve, poor fit]",–
COc1ccc(C(CNC(=O)CNC(=O)c2ccccc2)N2CCCC2)cc1 (stereo not drawn),5.31,–,–
Cc1ccc2c3c([nH]c2c1C)-c1nonc1CC3,-49.9,"23.1 µM [falling, partial curve]","13 µM [falling, partial curve]"
CCOC(=O)C1CCN(C(=O)C2CCN(S(=O)(=O)c3cccc4nsnc34)CC2)CC1,0.236,"6.51 µM [falling, single point]",–
CCOC(=O)N1CCC(N2CC34C=CC(O3)C(C(=O)Nc3ccc(F)cc3)C4C2=O)CC1 (stereo not drawn),21.9,"0.651 µM [rising, full curve, poor fit]",–

# Of the compounds above, six have four or more nitrogen atoms:
Structure (SMILES),cell number change [%],AC50 [1],AC50 [2]
CCCCN(CC)S(=O)(=O)c1ccc(C(=O)N=c2sc3cc(NC(C)=O)ccc3n2C)cc1,-15.9,"6.51 µM [falling, single point]","6.51 µM [falling, single point]"
CC(C)c1ccc(NC(=O)C2CCN(c3ncnc4c3nc3n4CCCCC3)CC2)cc1,-17.6,–,–
CC(Sc1nnc(-c2ccccc2F)n1C1CC1)C(=O)NCc1ccco1 (stereo not drawn),-13.2,"11.6 µM [falling, partial curve]",–
Cc1cc(C)nc(NS(=O)(=O)c2ccc(N/C=C/C(=O)c3ccc(Cl)c(Cl)c3)cc2)n1,-21.9,–,–
Nc1ncc(Br)cc1S(=O)(=O)NCCC(=O)NCCc1ccccc1,11.6,"1.46 µM [rising, single point]",–
CCOC(=O)C1CCN(C(=O)C2CCN(S(=O)(=O)c3cccc4nsnc34)CC2)CC1,0.236,"6.51 µM [falling, single point]",–

# The list continues.

Structure (SMILES),cell number change [%],AC50 [1],AC50 [2]
Cc1ccccc1C(=O)N1CCN(CCNC(=O)C(=O)Nc2ccc(Br)cc2)CC1,-7.92,"11.6 µM [rising, single point]",–
Cc1ccc(C(C)C)c(OCCNC(=S)Nc2cccc3ccccc23)c1,-74.1,"29.1 µM [falling, single point]",–
Cc1cc(C)n(CCc2nc(-c3ccc(C(C)(C)C)cc3)cs2)n1,-57.7,"13 µM [falling, partial curve]","16.4 µM [falling, partial curve]"
Cc1cc(C)n(CC(=O)NNC(=O)COc2ccc(Cl)cc2Cl)n1,0.937,"25.9 µM [rising, partial curve]",–
O=C(CS(=O)(=O)c1ccc(F)cc1)Nc1nnc(-c2ccccc2Cl)o1,31.9,–,"14.6 µM [rising, single point]"
O=C1OC(N2CCN(C/C=C/c3ccccc3)CC2)c2ccccc21 (stereo not drawn),-2.48,–,–
COc1ccc(-n2c(SCC(=O)O)nc3sc4c(c3c2=O)CCCC4)cc1,16.8,"9.2 µM [rising, partial curve, poor fit]",–
O=C(Cc1ccc(Br)cc1)Nc1ccc(S(=O)(=O)N2CCCC2)cc1,-25.8,"29.1 µM [falling, single point]",–
CCOC(=O)C1=C(Nc2cccc(Cl)c2)OCC1=O,39,–,"23.1 µM [rising, single point]"
Cc1nc(Nc2cccc(Cl)c2)c2oc3ccccc3c2n1,-5.56,"11.6 µM [rising, single point]",–
O=C(CN1NS(=O)(=O)c2ccccc2C1=O)Nc1ccccc1OC(F)F,26.8,"29.1 µM [rising, single point]","4.11 µM [rising, full curve, poor fit]"
Cc1cc(C)n2nc(SCC(=O)Nc3ccc(O)cc3)nc2n1,5.13,–,–
COc1ccc(-n2cc(-c3ccc(Br)cc3)[nH]c2=S)cc1,-3.94,"0.92 µM [rising, full curve]","0.184 µM [rising, partial curve]"
CC(C)CN1CCC(=O)N([C@H](COc2ccccc2)Cc2ccccc2)CC1,-9.71,"3.26 µM [rising, single point]",–
O=C(Cn1c(=O)[nH]c2ccsc2c1=O)NC1CCCCCC1,–,"29.1 µM [falling, single point]",–
O=C(N/N=C/c1cn(CCOc2ccccc2)c2ccccc12)c1ccncc1,53.2,–,"29.1 µM [rising, single point]"
Cc1ccc(-n2c(=O)c3sccc3n(CC(=O)NCC3CCCO3)c2=O)cc1F (stereo not drawn),-4.76,"0.206 µM [falling, single point]",–
CCOC(=O)N1CCN(c2cc(=O)n(-c3cccc(Br)c3)c(=O)[nH]2)CC1,-5.76,"0.651 µM [falling, single point]",–
COc1ccccc1NC(=O)Cc1noc(CSc2cccc[n+]2[O-])n1,51.7,"0.731 µM [rising, partial curve]","9.2 µM [rising, partial curve, poor fit]"

# Sorted by length of the SMILES (smallest number first): part of the list above.
Structure (SMILES),cell number change [%],AC50 [1],AC50 [2]
Cc1cc(C)n(CC(=O)NNC(=O)COc2ccc(Cl)cc2Cl)n1,0.937,"25.9 µM [rising, partial curve]",–
Cc1ccc(-n2c(=O)c3sccc3n(CC(=O)NCC3CCCO3)c2=O)cc1F (stereo not drawn),-4.76,"0.206 µM [falling, single point]",–
CCOC(=O)N1CCN(c2cc(=O)n(-c3cccc(Br)c3)c(=O)[nH]2)CC1,-5.76,"0.651 µM [falling, single point]",–
